Assay results from paper PMC9338993.
Results are given in words; binding and its absence hold for the method and conditions named. In cells and extracts the contact can be indirect. Some entries that bind do so weakly or less than the wild type. Sequences can lack the tags named with a protein.

By UniProt entry, the sequences of proteins in these tests, tags left out. Where a name states a change or a piece, a line headed by the entry shows the natural chain unless it says otherwise.
UniProt P17936: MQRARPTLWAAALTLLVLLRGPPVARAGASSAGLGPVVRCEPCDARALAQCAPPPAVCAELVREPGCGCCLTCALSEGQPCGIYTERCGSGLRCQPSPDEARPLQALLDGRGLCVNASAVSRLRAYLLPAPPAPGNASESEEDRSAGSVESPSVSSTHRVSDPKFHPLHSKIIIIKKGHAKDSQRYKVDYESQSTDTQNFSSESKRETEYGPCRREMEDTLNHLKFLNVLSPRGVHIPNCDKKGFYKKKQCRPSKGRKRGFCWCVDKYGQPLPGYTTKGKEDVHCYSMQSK

Assays:
human ALS-His (human) [1] = molecular target: T1, human ALS-His (human) (UniProt P35858); assay: pull-down; three proteins co-expressed in Expi293-F (ALS-His : IGFBP3-Strep, CLD3-CBP3-Strep or hybrid-BP-Strep : IGF1 = 1:1:2); culture supernatant on Ni-NTA or Strep-Tactin resin; 20 mM Tris-HCl pH 8.0, 200 mM NaCl; SDS-PAGE
T1 sequence: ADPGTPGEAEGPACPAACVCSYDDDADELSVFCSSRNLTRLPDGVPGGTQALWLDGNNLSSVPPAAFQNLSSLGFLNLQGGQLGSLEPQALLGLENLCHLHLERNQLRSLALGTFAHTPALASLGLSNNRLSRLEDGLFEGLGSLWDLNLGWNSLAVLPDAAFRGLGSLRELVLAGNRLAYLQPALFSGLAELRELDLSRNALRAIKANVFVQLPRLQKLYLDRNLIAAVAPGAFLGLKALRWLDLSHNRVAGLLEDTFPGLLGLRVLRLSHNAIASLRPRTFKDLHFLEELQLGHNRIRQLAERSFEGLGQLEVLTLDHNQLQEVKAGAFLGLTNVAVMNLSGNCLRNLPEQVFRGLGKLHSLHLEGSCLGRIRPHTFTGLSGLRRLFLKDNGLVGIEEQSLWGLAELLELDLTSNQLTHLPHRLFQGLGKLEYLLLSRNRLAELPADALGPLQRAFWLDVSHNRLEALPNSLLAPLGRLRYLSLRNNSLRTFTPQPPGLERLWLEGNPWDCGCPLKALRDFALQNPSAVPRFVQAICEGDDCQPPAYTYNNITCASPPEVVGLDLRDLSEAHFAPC

human ALS-His (human) [2] = molecular target: T1, human ALS-His (human); assay: pull-down; two proteins co-expressed 1:1 in Expi293-F without the third (ALS-His with IGFBP3-Strep, IGF1-Strep, CLD3-CBP3-Strep or hybrid-BP-Strep; CLD3-CBP3-Strep with IGF1-His); culture supernatant on Ni-NTA or Strep-Tactin resin; 20 mM Tris-HCl pH 8.0, 200 mM NaCl; SDS-PAGE

hybrid-BP2-Strep (IGFBP3 with its CLD replaced by the CLD of human IGFBP2) (from UniProt P17936 28-117; P18065 135-223; P17936 210-291)
binding (human ALS-His (human) [1]): binds | binding (human ALS-His (human) [2]): binds

hybrid-BP1-Strep (IGFBP3 with its CLD replaced by the CLD of human IGFBP1) (from UniProt P17936 28-117; P08833 108-172; P17936 210-291)
binding (human ALS-His (human) [1]): binds | binding (human ALS-His (human) [2]): binds

hybrid-BP4-Strep (IGFBP3 with its CLD replaced by the CLD of human IGFBP4) (from UniProt P17936 28-117; P22692 104-170; P17936 210-291)
binding (human ALS-His (human) [1]): binds | binding (human ALS-His (human) [2]): binds

hybrid-BP6-Strep (IGFBP3 with its CLD replaced by the CLD of human IGFBP6) (from UniProt P17936 28-117; P24592 108-159; P17936 210-291)
binding (human ALS-His (human) [1]): binds | binding (human ALS-His (human) [2]): binds
